This note sets out measurements from patent publication US20020132364A1, “Quant-screentm chemiluminescent assays” (priority 2001, published 2002).

The test concerns NIH/3T3 cells. Particulars: NIH/3T3, 26 hours in full medium, various concentrations.

As for `CN[C@@H]1C[C@H]2O[C@@](C)([C@@H]1OC)n1c3ccccc3c3c4c(c5c6ccccc6n2c5c31)C(=O)NC4` [staurosporine], the “growth inhibition (Quant-Screen Mammalian Assay signal, FIG. 12)” value was “correlation of growth inhibition to the concentration of staurosporine”.
